In PubChem BioAssay AID2685 (National Center for Advancing Translational Sciences (NCATS), 2010):
Some of the results follow. Shown are side measurements of this screen, not its main read-out; they come without a call. The list favours compounds with an active or inconclusive main result. Words in brackets tell the shape of the fitted curve; partial curves, single points and poor fits give uncertain potencies.

Test: qHTS Assay for Lipid Storage Modulators in Drosophila S3 Cells;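 on cell number change: cells counted by Cell Tracker Red CMTPX staining in the red channel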
Conditions: BODIPY lipid droplet fluorescence, 18-24 h; for cell number change: measured here: cell count max response, cells fed with added oleic acid
In short: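 Drosophila S3 cells got compounds at several concentrations plus oleic acid (400 uM solution). Laser-scanning cytometry with 488 nm excitation read lipid droplets at 500-530 nm and cells at 575-640 nm. Percent activity was relative to 20 uM Triacsin C.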

[1] = measured here: lipid fluorescence (Fed channel) AC50, cells fed with added oleic acid
[2] = measured here: cell number channel AC50, cells fed with added oleic acid

SMILES | cell number change | AC50 [1] | AC50 [2]
CCC(=O)Nc1cc(-c2nn3c(C)nnc3s2)ccc1C | -0.572% | 4.61 µM [rising, full curve, poor fit] | –
CCn1c(SCC(=O)NCc2ccco2)nnc1C1CCCC1 | 3.87% | 29.1 µM [rising, single point] | –
O=C1c2ccccc2C(=O)N1CCC(c1ccc(F)cc1)c1ccco1 (stereo unspecified) | 71.2% | – | 23.1 µM [rising, single point]
CCOC(=O)C1CCN(Cc2ccc(F)c(Br)c2)CC1 | -1.75% | 1.3 µM [rising, full curve] | –
Cc1ccc(-c2nnc(NC(=O)c3ccco3)s2)cc1 | 28.7% | 18.4 µM [rising, partial curve] | –
CCCn1cc(S(=O)(=O)c2ccccc2)c(=O)c2cc(OCC)ccc21 | – | 29.1 µM [falling, single point] | –
O=C(c1ccc2c(c1)OCO2)[C@@H]1[C@@H]2C(=O)N(C3CCCCC3)C(=O)[C@@H]2C2c3ccccc3C=CN21 (stereo partly specified) | -10.8% | 16.4 µM [falling, partial curve, poor fit] | –
Cc1ccc2c(c1)c1ncn(CCC3=CCCCC3)c(=O)c1n2C | 11.7% | 1.46 µM [rising, full curve] | –
Fc1ccccc1N1CCN(c2nc3ccccc3n3nnnc23)CC1 | 66.8% | – | 5.17 µM [rising, full curve]
O=C(CN1CCOCC1)OCCCc1ccccc1 | 7.45% | 29.1 µM [falling, partial curve, poor fit] | –
COc1cc(-c2nnc(SC(C)C(=O)Nc3c(C)n(C)n(-c4ccccc4)c3=O)o2)cc(OC)c1OC (stereo unspecified) | – | 20.6 µM [falling, partial curve] | –
O=C(COc1ccccc1F)Nc1ccc(S(=O)(=O)N2CCCC2)cc1 | -43.3% | – | 23.1 µM [falling, partial curve]
CCc1nc(C)ccc1OC(=O)C12CC3CC(CC(C3)C1)C2 | -24.1% | 16.4 µM [falling, single point] | –
Cc1cc(/C=C2/C(=N)N3C(=NC2=O)SN=C3S(C)(=O)=O)c(C)n1-c1ccccc1 | -10.5% | 0.058 µM [falling, full curve, poor fit] | –
COc1ccc(OC2CCN(S(=O)(=O)c3ccc(OC)c(OC)c3)CC2)cc1 | -8.51% | – | –
O=C(Nc1ccc(Cl)cc1)C1CC(=O)n2c(nc3ccccc32)N1 (stereo unspecified) | 5.02% | – | 2.91 µM [rising, single point]
CN(Cc1ccccc1)C(=O)COC(=O)C1=NNC(=O)CC1 | 17.2% | – | 0.326 µM [rising, single point]

Exported field by field: two of the compounds above
COc1cc(-c2nnc(SC(C)C(=O)Nc3c(C)n(C)n(-c4ccccc4)c3=O)o2)cc(OC)c1OC (stereo unspecified)
  AC50 [1]: 20.6 µM [falling, partial curve]
O=C(Nc1ccc(Cl)cc1)C1CC(=O)n2c(nc3ccccc32)N1 (stereo unspecified)
  cell number change: 5.02%; AC50 [2]: 2.91 µM [rising, single point]
